# Laboratory results: publication PMC13276377
# Protein sequences, listed by entry. Tags and fused reporters are not part of them. Residues count along the entry.
# UniProt Q99836, residues 153-296: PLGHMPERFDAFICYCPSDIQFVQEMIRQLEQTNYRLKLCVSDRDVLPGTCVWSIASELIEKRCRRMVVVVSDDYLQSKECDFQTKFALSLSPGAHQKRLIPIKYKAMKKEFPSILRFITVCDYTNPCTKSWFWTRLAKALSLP
# UniProt O60602, residues 685-858: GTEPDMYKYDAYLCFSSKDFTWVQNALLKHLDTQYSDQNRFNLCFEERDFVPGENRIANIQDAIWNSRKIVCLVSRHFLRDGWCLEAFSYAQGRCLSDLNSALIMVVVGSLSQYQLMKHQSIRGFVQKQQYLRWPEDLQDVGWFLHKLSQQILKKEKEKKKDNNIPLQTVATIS
# Results are given in words; binding and its absence hold for the method and conditions named. Some binding calls cover weakened binding; strength is not graded here.
# Target: TIR domain of MyD88 (TIR_(MyD88); residues 153–296) (human) (UniProt Q99836)
# Assay: high-speed AFM; preformed TIR_(MyD88) rings on mica; 7 μL of 50 μM GST-TIR_(TLR2), TIR_(TLR2), GST-TIR_(TLR5) or GST added to 63 μL of buffer (final 5 μM) while scanning; 20 mM HEPES pH 7.0, 50 mM NaCl, 10 mM DTT; room temperature; topping events on rings counted; both purified
substance,measurement,value
GST-TIR_(TLR5) (from UniProt O60602 685-858) (domain or fragment),binding,binds
